Assay results taken from article PMC6420625.
No constants are given. Whether binding was seen depends on the method and setting. Some binding calls cover weakened binding; strength is not graded here.

Chains of the proteins cited; added tags and fusions are not shown.
UniProt F2YGR7: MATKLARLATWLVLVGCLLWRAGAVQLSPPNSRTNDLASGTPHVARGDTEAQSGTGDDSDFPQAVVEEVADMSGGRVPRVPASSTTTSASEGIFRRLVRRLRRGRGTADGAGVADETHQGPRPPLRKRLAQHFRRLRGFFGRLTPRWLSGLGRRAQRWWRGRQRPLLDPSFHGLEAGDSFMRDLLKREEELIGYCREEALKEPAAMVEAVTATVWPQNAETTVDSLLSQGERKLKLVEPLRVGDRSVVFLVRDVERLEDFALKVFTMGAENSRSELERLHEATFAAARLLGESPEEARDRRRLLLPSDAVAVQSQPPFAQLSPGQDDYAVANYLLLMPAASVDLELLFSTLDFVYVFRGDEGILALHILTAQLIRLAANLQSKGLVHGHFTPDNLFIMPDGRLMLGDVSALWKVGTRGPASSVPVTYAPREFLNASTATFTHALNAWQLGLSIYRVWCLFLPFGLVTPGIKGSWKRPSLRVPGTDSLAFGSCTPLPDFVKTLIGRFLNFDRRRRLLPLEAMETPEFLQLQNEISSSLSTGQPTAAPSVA
UniProt U5NGE1: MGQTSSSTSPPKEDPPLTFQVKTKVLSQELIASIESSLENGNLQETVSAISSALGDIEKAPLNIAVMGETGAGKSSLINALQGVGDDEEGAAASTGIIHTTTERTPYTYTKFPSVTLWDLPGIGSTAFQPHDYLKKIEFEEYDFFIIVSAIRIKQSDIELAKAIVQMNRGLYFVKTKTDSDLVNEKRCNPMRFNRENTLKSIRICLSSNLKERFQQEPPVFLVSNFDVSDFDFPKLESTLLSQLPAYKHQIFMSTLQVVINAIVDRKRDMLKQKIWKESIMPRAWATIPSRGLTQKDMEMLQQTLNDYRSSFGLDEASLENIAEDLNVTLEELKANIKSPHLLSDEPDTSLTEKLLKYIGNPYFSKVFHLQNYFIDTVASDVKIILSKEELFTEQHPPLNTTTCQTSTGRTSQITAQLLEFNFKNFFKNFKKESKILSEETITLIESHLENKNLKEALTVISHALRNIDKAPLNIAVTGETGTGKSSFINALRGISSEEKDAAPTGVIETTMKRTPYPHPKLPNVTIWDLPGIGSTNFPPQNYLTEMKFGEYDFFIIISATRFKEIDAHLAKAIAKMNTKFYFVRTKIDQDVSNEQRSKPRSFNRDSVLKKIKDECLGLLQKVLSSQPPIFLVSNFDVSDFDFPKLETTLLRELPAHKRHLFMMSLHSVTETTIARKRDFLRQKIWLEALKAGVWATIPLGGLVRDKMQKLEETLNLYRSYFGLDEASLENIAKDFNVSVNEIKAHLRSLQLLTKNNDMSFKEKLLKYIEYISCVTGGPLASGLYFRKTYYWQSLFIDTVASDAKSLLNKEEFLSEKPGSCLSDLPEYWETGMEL

Biological target: ROP5B (T. gondii RH), yeast two-hybrid fusion (Toxoplasma gondii, strain RH) (UniProt F2YGR7)
Assay: two-hybrid; S. cerevisiae PJ69-4α, Gal4 AD (pGAD-C3) and BD (pGBD-C3) fusions; growth on triple dropout medium (SD/-Leu/-Trp/-His) with 1 mM 3-AT, 5 to 10 days at 30 °C

In the case of “Irgb2-b1CIM, yeast two-hybrid fusion (from UniProt U5NGE1 1-835)”, the binding is reported as “binds”.
